# Experimental data: US20150065354
# Columns and labels:
# [1] = system: T1, XPD Mbu helicase (Rad3-related DNA helicase) (Methanococcoides burtonii); assay: activity assay; conditions: fluorescence strand displacement (unwinding); 100 mM Hepes pH 8.0, 1 mM ATP, 10 mM MgCl2, 100 mM to 1 M KCl; active at 1 M KCl; purified recombinant protein; protein details: ONLP3696
# T1 sequence (limits assumed): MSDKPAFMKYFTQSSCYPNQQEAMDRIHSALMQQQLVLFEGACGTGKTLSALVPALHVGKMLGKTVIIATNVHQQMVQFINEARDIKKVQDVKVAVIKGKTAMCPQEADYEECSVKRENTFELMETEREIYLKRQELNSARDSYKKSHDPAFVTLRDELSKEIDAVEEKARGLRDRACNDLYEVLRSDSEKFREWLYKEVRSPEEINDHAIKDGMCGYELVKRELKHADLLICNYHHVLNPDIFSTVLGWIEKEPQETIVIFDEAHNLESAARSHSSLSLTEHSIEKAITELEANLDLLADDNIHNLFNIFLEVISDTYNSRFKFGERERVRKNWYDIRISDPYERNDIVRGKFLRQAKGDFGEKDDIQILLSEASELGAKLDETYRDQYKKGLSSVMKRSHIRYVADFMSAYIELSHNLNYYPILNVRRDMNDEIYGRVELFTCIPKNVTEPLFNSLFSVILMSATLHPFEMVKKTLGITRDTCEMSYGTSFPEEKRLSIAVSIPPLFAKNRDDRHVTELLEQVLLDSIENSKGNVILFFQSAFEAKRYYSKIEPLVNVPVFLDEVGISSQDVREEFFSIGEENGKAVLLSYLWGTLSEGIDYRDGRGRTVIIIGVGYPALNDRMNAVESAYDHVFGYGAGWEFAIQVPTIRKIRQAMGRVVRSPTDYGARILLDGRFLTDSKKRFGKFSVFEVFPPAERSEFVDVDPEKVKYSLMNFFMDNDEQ
# [2] = system: T1, XPD Mbu helicase (Rad3-related DNA helicase) (Methanococcoides burtonii); assay: binding assay; conditions: 3' cholesterol on primer SEQ 64; iSp18 spacer; four 2'-OMe-U at 5' end; nanopore (MspA) helicase-controlled DNA movement, 5'-3'; 400 mM NaCl, 10 mM Hepes pH 8.0, 1 mM ATP, 1 mM MgCl2, 1 mM DTT, +140 mV; purified recombinant protein; protein details: ONLP3696
Sequence,activity on this sequence [1],binding result [2]
CCCCCCCCACCCCCCCCCACCCCCCCCCACCCCCCCCCCCTATTCTGTTTATGTTTCTTGTTTGTTAGCCCTATTCTGT / ACAGAATAGGGCTAACAAACAAGAAACATAAACAGAATAG [fluorescent helicase substrate],active,–
TTTTTTTTTTTTTTTTTTTTTTTTTTTTTTTTTTTTTTTTTTTTTTTTTTTTTTGGTTGTTTCTGTTGGTGCTGATATTGCTTTTGATGCCGACCCTAAATTTTTTGCCTGTTTGGTTCGCTTTGAGTCTTCTTCGGTTCCGACTACCCTCCCGACTGCCTATGATGTTTATCCTTTGAATGGTCGCCATGATGGTGGTTATTATACCGTCAAGGACTGTGTGACTATTGACGTCCTTCCCCGTACGCCGGGCAATAACGTTTATGTTGGTTTCATGGTTTGGTCTAACTTTACCGCTACTAAATGCCGCGGATTGGTTTCGCTGAATCAGGTTATTAAAGAGATTATTTGTCTCCAGCCACTTAAGTGAGGTGATTTATGTTTGGTGCTATTGCTGGCGGTATTGCTTCTGCTCTTGCTGGTGGCGCCATGTCTAAATTGTTTGGAGGCGGTC / TGACCGCCTCCAAACAATTTAGACATGG / AGCGACTAACAAACACAATCTGATGGCTTTTTTTTTTTTTTTTTTTTTTTTTTTTTT [400mer PhiX174 ssDNA with 50T 5' leader and annealed primers],–,binds

# Tags and fusion partners may be left off the protein sequences shown. For some assays here: Construct, isoform or probe ends are uncertain for at least one entry.
